Experimental data taken from article PMC10669843.

By UniProt entry, the sequences of proteins in these tests, tags left out. Residues count along the entry.
UniProt P29476: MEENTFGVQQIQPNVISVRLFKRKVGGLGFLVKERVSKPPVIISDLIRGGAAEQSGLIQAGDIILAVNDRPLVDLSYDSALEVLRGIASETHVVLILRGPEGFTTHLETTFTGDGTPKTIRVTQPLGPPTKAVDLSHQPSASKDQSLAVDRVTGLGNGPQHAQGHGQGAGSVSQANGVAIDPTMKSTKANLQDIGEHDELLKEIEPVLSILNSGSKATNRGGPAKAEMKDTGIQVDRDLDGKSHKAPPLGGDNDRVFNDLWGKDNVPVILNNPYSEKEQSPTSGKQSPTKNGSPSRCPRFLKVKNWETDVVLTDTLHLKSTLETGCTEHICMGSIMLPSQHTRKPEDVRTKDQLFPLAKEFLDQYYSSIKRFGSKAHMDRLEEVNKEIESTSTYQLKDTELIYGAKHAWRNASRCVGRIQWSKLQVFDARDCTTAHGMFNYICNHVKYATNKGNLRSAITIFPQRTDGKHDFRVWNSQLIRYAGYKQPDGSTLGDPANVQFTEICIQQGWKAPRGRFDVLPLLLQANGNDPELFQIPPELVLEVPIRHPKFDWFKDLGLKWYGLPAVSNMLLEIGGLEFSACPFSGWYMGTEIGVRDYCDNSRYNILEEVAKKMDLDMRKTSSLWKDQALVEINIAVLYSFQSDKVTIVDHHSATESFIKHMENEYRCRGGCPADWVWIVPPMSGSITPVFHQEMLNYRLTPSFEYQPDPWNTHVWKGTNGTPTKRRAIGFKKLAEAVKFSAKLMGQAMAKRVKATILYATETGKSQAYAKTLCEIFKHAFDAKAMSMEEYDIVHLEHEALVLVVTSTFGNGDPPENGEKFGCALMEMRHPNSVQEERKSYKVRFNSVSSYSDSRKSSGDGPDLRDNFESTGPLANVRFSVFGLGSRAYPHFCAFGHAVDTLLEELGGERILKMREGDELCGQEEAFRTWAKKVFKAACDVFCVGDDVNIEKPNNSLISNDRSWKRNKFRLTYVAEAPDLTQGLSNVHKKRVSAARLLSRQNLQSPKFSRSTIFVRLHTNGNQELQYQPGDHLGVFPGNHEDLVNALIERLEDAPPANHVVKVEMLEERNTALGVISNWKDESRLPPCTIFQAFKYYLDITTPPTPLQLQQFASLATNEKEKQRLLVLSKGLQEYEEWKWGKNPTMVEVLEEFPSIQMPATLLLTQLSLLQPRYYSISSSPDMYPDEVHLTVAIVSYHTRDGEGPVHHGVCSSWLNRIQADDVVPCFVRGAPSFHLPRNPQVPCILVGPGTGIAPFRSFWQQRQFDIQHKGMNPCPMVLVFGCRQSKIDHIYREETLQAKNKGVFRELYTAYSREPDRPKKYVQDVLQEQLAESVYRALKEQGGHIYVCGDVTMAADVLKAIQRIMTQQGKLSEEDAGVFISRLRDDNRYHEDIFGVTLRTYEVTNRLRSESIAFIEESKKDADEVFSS
UniProt P10888, residues 23-169: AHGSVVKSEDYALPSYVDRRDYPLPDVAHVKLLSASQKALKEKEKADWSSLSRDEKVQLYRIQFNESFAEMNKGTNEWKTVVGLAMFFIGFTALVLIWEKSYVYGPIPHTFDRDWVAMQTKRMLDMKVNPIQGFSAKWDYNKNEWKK

Molecular target: brain mitochondrial nitric-oxide synthase (NOS; alpha NOS1 isoform) (rat (endogenous in rat brain mitochondria)) (UniProt P29476)
Assay: affinity purification with mass spectrometry; NOS1 immunoprecipitated with rabbit polyclonal anti-NOS1 R-20 (C-terminus) on protein-G agarose from digitonin-lysed whole rat brain mitochondria (IP buffer: 150 mM NaCl, 5 mM EDTA, 0.1% Triton X-100, 10 mM HEPES); 2D gel (second dimension 15% or 12.5%), spots absent from the mock gel identified by MALDI-TOF MS

binding: binds
Substance: cytochrome c oxidase subunit IV (from UniProt P10888 23-169)

These are yes or no findings as the source states them, for the method shown. In cells and extracts the contact can be indirect. A yes stands for co-enrichment or nearness to the bait. Other partners may have been found.
